The target in the experiment is T1, A0A087WTB8|P15374 (UniProt P15374).
T1 sequence (whole entry): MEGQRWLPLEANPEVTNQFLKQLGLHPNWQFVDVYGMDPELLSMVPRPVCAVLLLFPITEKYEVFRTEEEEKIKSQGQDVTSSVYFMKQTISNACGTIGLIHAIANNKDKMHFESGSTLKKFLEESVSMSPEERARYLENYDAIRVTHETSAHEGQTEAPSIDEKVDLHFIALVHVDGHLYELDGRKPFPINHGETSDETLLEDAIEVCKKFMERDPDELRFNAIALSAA
The experiment is described as follows: NP40-soluble protein abundance relative to vehicle (solubility fold change) (ratio); higher = more soluble protein in presence of GTP. The method, then:
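Solubility proteome profiling in Jurkat crude lysate. Lysate was treated with Mg-GTP (0.1-10 mM) for 10 min at room temperature and 3 min at 37 °C, then solubilised with 0.8% NP40 and benzonase, followed by ultracentrifugation. Proteins were quantified by TMT10 LC-MS/MS; the value is the NP40-soluble abundance relative to the NP40-processed vehicle, from 3 independent experiments.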

± gives the standard deviation of the averaged measurements. Some of the results follow.

Turning to `Nc1nc2c(ncn2[C@@H]2O[C@H](COP(=O)(O)OP(=O)(O)OP(=O)(O)O)[C@@H](O)[C@H]2O)c(=O)[nH]1` [guanosine triphosphate], the NP40-soluble protein abundance is 0.961 ± 0.038 (concentration: 0.1mM); 0.96 ± 0.069 (concentration: 0.5mM); 0.939 ± 0.044 (concentration: 1mM); 0.946 ± 0.075 (concentration: 2mM); 0.918 ± 0.064 (concentration: 4mM); 0.927 ± 0.07 (concentration: 6mM). In addition, the NP40-soluble protein abundance came out at 0.899 ± 0.098 (concentration: 8mM) and 0.91 ± 0.079 (concentration: 10mM).

These data come from the supplement of paper PMC6411743.
